Here are results for 2 molecules from paper doi:10.1101/2025.03.24.645050.

Amino acid sequences for entries named in this document (tags omitted). A change or cut given only in a name is not applied to a line headed by its entry.
UniProt Q96SW2: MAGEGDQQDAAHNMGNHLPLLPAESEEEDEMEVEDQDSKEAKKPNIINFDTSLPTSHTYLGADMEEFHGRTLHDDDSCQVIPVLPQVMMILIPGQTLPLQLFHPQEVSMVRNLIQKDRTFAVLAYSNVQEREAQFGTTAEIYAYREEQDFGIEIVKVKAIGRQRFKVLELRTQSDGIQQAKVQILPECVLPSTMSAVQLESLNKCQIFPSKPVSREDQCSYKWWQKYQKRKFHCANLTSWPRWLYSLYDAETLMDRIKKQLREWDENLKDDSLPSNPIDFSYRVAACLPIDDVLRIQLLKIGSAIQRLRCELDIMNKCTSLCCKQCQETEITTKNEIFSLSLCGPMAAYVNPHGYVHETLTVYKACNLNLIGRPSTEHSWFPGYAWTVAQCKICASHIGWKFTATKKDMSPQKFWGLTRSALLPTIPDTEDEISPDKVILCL
UniProt Q16531: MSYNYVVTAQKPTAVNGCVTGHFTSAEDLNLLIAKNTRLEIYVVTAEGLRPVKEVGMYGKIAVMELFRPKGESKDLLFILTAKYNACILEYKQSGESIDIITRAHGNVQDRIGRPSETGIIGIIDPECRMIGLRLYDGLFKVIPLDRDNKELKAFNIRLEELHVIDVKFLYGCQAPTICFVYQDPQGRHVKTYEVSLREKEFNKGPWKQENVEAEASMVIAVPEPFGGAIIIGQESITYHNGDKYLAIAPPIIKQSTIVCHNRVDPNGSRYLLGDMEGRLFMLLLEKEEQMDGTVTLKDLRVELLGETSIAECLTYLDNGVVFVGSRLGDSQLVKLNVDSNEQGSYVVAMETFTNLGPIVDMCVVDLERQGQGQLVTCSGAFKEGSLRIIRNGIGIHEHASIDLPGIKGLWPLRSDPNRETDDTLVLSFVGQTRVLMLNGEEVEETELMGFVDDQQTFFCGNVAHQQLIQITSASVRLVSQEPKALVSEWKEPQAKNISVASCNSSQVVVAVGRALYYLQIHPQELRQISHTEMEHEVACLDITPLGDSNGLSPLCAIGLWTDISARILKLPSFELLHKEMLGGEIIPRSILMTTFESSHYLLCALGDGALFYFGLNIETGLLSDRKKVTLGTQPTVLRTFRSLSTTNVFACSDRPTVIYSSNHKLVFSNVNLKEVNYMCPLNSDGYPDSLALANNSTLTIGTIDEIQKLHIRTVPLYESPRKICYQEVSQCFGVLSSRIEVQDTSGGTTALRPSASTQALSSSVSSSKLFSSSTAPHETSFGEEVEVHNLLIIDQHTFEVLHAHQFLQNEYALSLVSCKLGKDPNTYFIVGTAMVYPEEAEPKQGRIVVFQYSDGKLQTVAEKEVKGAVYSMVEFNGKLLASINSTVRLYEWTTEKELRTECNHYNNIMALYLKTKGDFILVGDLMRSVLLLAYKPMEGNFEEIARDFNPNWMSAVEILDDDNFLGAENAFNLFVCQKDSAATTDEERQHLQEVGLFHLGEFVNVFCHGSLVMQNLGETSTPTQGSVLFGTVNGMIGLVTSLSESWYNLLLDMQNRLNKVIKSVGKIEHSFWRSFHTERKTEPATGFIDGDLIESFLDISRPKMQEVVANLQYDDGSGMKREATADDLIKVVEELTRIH
UniProt P15104: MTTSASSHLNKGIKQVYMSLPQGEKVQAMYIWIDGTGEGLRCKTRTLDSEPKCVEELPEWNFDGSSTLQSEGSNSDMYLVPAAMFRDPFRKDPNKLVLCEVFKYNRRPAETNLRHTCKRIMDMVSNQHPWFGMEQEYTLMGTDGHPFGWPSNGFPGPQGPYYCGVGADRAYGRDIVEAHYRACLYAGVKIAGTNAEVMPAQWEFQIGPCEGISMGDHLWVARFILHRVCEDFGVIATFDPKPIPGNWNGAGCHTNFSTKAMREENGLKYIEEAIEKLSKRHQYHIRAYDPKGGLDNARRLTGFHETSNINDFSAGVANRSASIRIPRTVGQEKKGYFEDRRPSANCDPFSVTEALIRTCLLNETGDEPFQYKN

Results are given in words; binding and its absence hold for the method and conditions named. Some entries that bind do so weakly or less than the wild type.

For one assay, the target named is His6-CRBN/DDB1 complex (UniProt Q96SW2). Kind of assay: AlphaScreen or HTRF. On the technique in general: Bead proximity is the source of the signal in Alpha formats.
The target of assay [1] is human CRBN-DDB1 (complex crystallised with PFQYKcN) (human) (UniProt Q96SW2+Q16531). Kind of assay: crystal structure.

Consider PFQYKA (peptide, UniProt P15104 368-373) [GLUL 6-mer with the C-terminal N replaced by alanine, incubated with PCMT1], for which the binding result with His6-CRBN/DDB1 complex is “no binding”.
Turning to PFQYKN (C-terminal asparagine as cyclic imide (cN)) [synthetic GLUL C-terminal 6-mer PFQYKcN], the binding entry in assay [1] was “binds”.
